Assay results reported in paper PMC11172389.

By UniProt entry, the sequences of proteins in these tests, tags left out.
UniProt P58391: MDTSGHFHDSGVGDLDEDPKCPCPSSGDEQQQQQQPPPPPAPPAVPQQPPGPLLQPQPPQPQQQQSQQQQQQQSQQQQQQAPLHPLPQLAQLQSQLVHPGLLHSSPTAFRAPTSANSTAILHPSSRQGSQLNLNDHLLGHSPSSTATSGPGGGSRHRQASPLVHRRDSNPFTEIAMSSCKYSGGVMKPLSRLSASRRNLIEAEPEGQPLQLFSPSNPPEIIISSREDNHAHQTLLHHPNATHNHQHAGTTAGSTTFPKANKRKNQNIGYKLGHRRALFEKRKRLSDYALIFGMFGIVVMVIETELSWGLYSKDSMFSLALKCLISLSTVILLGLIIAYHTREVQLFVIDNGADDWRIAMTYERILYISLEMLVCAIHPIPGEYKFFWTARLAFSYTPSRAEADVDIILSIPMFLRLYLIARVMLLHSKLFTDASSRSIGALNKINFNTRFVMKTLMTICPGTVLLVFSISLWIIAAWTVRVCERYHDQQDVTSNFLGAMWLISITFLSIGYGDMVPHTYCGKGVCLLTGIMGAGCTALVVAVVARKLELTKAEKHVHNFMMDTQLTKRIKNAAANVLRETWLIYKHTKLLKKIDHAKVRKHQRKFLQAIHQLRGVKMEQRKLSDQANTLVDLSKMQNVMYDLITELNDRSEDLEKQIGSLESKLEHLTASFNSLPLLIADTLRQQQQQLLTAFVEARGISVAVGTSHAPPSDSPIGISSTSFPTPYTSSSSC
UniProt Q61037: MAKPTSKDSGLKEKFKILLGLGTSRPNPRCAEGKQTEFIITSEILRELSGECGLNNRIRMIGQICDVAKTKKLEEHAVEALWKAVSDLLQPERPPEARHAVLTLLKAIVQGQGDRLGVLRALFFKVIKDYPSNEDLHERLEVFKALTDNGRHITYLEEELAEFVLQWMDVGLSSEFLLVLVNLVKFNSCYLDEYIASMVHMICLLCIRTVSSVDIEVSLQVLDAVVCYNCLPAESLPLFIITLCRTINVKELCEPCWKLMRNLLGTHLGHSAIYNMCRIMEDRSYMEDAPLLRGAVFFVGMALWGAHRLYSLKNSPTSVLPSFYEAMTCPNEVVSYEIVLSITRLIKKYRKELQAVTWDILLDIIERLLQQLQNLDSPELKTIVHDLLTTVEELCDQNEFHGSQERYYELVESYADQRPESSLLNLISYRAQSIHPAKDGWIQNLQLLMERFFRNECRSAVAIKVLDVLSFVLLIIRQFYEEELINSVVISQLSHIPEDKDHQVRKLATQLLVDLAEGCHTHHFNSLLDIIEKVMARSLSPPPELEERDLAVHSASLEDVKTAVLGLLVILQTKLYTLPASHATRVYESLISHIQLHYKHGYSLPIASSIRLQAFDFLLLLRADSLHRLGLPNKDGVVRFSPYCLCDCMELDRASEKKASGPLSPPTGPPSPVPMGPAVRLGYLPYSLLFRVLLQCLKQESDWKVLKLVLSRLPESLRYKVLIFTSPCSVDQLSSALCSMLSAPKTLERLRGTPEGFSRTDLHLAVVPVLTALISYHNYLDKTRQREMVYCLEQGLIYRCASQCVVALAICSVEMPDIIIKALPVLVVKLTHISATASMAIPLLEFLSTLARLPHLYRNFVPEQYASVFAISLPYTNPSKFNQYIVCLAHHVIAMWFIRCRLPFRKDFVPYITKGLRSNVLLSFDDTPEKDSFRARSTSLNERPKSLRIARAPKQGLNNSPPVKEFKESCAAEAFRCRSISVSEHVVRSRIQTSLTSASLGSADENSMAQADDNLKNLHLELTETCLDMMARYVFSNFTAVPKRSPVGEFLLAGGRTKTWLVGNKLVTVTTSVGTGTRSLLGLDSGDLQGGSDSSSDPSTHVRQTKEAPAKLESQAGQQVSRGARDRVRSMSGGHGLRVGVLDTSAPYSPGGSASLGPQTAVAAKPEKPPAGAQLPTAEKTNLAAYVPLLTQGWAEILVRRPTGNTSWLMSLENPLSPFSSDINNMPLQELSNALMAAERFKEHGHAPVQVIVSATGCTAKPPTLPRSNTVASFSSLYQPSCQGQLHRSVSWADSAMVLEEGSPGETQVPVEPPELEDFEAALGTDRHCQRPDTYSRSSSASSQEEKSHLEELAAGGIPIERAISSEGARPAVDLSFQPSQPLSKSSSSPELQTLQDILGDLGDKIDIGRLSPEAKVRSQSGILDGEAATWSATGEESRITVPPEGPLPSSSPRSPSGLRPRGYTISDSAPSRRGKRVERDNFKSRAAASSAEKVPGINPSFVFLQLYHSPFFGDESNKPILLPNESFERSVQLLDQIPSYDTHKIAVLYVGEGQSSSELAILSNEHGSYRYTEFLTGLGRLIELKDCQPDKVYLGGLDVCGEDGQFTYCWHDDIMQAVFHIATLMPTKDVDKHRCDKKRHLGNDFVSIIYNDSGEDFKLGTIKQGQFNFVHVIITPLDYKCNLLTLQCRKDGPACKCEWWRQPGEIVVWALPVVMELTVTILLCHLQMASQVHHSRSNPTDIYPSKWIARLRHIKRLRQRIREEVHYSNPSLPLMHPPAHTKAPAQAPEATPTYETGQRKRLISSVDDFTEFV
UniProt Q61290: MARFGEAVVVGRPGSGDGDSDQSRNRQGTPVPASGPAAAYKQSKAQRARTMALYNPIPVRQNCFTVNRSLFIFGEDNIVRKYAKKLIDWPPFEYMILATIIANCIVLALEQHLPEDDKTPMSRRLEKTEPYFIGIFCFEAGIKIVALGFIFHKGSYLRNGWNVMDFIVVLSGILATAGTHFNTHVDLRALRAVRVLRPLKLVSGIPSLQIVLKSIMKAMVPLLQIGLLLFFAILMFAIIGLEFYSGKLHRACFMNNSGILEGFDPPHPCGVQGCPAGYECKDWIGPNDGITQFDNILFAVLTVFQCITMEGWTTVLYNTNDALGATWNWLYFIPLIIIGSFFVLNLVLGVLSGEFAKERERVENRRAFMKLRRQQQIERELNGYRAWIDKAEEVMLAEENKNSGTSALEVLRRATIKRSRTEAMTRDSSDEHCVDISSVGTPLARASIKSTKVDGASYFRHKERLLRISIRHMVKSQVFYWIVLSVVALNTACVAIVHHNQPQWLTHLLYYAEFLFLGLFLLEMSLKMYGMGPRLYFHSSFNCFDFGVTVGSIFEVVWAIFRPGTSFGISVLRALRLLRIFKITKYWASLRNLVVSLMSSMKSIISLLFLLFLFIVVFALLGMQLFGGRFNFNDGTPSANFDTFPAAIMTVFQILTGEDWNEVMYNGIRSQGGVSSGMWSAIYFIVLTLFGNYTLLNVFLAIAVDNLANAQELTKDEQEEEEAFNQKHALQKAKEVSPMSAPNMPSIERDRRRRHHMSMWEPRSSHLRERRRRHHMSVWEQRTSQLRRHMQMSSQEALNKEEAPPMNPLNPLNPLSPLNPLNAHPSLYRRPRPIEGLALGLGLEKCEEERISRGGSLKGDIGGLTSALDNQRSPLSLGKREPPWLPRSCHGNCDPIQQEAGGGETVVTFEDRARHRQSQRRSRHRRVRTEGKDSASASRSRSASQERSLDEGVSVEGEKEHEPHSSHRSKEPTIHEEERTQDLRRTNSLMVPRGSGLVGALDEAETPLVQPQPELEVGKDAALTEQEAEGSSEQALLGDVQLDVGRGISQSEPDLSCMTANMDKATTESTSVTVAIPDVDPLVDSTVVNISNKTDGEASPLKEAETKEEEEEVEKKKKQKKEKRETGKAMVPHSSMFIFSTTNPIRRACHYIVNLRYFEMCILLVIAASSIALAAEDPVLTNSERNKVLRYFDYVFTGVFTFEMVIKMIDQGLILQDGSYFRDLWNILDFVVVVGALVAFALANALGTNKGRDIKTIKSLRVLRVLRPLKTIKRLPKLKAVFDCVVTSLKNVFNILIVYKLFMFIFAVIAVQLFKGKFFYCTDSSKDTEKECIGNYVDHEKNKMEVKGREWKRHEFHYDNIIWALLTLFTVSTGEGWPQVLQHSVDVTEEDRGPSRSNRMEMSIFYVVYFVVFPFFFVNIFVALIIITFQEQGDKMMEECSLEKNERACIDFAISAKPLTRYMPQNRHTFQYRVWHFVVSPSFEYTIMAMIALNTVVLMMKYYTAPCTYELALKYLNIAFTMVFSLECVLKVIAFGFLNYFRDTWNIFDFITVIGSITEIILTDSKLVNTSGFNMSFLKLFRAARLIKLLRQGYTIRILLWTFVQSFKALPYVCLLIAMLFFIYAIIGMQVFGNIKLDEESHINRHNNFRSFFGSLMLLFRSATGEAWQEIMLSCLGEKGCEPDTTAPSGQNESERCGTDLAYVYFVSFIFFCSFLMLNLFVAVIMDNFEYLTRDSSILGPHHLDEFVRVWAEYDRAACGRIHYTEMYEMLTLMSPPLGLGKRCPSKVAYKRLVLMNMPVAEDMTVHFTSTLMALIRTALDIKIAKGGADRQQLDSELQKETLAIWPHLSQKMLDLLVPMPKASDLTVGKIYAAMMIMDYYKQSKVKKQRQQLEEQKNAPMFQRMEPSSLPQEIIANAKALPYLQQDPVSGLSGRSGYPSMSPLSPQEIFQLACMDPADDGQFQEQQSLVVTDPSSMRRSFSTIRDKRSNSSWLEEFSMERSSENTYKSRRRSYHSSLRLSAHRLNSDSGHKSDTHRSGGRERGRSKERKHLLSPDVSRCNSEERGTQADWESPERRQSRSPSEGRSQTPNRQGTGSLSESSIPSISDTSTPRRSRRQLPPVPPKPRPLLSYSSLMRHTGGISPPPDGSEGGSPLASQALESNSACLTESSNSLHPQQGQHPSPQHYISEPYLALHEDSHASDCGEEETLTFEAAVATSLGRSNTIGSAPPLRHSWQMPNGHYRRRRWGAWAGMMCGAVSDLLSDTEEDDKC

T1: hyperpolarization-activated cyclic nucleotide-gated channel HCN2 (mouse (endogenous in midbrain)) (UniProt O88703)
T1 sequence: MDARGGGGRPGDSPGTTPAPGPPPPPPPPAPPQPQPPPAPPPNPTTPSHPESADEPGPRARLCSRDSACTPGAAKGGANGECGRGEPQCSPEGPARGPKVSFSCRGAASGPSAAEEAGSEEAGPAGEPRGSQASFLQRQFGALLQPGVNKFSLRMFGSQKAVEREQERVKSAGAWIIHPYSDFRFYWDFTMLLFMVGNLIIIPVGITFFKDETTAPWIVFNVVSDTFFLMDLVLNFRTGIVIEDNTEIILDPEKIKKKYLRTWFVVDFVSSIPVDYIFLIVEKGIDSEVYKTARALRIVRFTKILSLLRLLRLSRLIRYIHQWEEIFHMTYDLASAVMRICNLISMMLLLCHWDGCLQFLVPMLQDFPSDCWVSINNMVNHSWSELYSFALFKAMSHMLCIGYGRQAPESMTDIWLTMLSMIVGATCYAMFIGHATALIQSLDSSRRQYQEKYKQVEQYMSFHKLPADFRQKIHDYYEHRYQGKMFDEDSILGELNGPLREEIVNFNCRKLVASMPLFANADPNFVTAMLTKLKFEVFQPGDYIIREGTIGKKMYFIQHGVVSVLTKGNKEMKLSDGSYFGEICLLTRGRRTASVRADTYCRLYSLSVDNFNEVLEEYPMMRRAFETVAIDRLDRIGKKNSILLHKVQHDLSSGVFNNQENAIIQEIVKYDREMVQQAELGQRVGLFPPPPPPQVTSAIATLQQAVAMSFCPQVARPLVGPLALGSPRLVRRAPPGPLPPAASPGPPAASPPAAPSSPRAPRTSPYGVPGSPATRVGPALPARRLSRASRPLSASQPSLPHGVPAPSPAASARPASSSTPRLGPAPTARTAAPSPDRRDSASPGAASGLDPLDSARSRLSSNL

B1: sclerosis tuberous complex protein Tbc1d7 (protein, UniProt Q9D0K0 1-293)
chain: MTDDSQRNFRSVYYEKVGFRGVEEKKSLEILLKDDRLDIEKLCTFSQRFPLPSMYRALVWKALLGILPPHHDTHSQVMAYRKDQYHDILHALTVVRFISDATPQAEVYLRMYQLESGKLPRSPSFPLEPEDEVFLAIAKAMEEMVEDSVDCYWISRCFVKQLNNKYRDALPQLPKAFEQYLNLEDSRLLSHLKTCSAVSKLPYDLWFQRCFAGCLPESSLQRVWDKVVSGSCKILVFVAVEILLTFKIKVMALNSAEKITKFLENIPQDSSDAIVSKAIDLWHKHCGTPVHSA
B2: calcium/calmodulin-dependent serine kinase Cask protein (protein, UniProt O70589 1-926)
chain: MADDDVLFEDVYELCEVIGKGPFSVVRRCINRETGQQFAVKIVDVAKFTSSPGLSTEDLKREASICHMLKHPHIVELLETYSSDGMLYMVFEFMDGADLCFEIVKRADAGFVYSEAVASHYMRQILEALRYCHDNNIIHRDVKPHCVLLASKENSAPVKLGGFGVAIQLGESGLVAGGRVGTPHFMAPEVVKREPYGKPVDVWGCGVILFILLSGCLPFYGTKERLFEGIIKGKYKMNPRQWSHISESAKDLVRRMLMLDPAERITVYEALNHPWLKERDRYAYKIHLPETVEQLRKFNARRKLKGAVLAAVSSHKFNSFYGDPPEELPDFSEDPTSSGLLAAERAVSQVLDSLEEIHALTDCSEKDLDFLHSVFQDQHLHTLLDLYDKINTKSSPQIRNPPSDAVQRAKEVLEEISCYPENNDAKELKRILTQPHFMALLQTHDVVAHEVYSDEALRVTPPPTSPYLNGDSPESANGDMDMENVTRVRLVQFQKNTDEPMGITLKMNELNHCIVARIMHGGMIHRQGTLHVGDEIREINGISVANQTVEQLQKMLREMRGSITFKIVPSYRTQSSSCERDSPSTSRQSPANGHSSTNNSVSDLPSTTQPKGRQIYVRAQFEYDPAKDDLIPCKEAGIRFRVGDIIQIISKDDHNWWQGKLENSKNGTAGLIPSPELQEWRVACIAMEKTKQEQQASCTWFGKKKKQYKDKYLAKHNAVFDQLDLVTYEEVVKLPAFKRKTLVLLGAHGVGRRHIKNTLITKHPDRFAYPIPHTTRPPKKDEENGKNYYFVSHDQMMQDISNNEYLEYGSHEDAMYGTKLETIRKIHEQGLIAILDVEPQALKVLRTAEFAPFVVFIAAPTITPGLNEDESLQRLQKESDVLQRTYAHYFDLTIINNEIDETIRHLEEAVELVCTAPQWVPVSWVY
B3: A-kinase anchoring protein 5 (protein, UniProt D3YVF0 1-745)
chain: METSVSEIQVETKDEKGPVAASPQKERQERKTATLCFKRRKKANKTKPKAGSRTAEETKKHTPEAGGSGQRQPAGAWASIKGLVTHRKRSEPAKKQKPPEAEVQPEDGALPKKKAKSRLKFPCLRFSRGAKRSRHSKLTEDSGYVRVQGEADDLEIKAQTQPDDQAIQAGSTQGLQEGVLVRDGKKSQESHISNSVTSGENVIAIELELENKSSAIQMGTPELEKETKVITEKPSVQTQRASLLESSAAGSPRSVTSAAPPSPATTHQHSLEEPSNGIRESAPSGKDDRRKTAAEEKKSGETALGQAEEAAVGQADKRALSQAGEATAGHPEEATVIQAESQAKEGKLSQAEETTVAQAKETVLSQAKEGELSQAKKATVGQAEEATIDHTEKVTVDQAEETTVGQAEEATVGQAGEAILSQAKEATVVGQAEEATVDRAEEATVGQAEEATVGHTEKVTVDQAEEATVGQAEEATVGQAEEATVDWAEKPTVGQAEEATVGQAEEATVGHTEKVTVDQAEEATVGQAEEATVGHTEKVTVDHAEEATVGQAEEATVGQAEKVTVDHAEEATVGQAEEATVGQAEKVTVDHAEEATVGQAEEATVGQAEKVTVDQAEEPTVDQAEEAISSHAPDLKENGIDTEKPRSEESKRMEPIAIIITDTEISEFDVKKSKNVPKQFLISMENEQVGVFANDSDFEGRTSEQYETLLIETASSLVKNAIELSVEQLVNEMVSEDNQINTLFQ
B4: sclerosis tuberous complex protein Tsc1 (protein, UniProt Q9EP53 1-1161)
chain: MAQLANIGELLSMLDSSTLGVRDDVTAIFKESLNSERGPMLVNTLVDYYLETNSQPVLHILTTLQEPHDKHLLDKINEYVGKAATRLSILSLLGHVVRLQPSWKHKLSQAPLLPSLLKCLKMDTDVVVLTTGVLVLITMLPMIPQSGKQHLLDFFDIFGRLSSWCLKKPGHVTEVYLVHLHASVYALFHRLYGMYPCNFVSFLRSHYSMKENVETFEEVVKPMMEHVRIHPELVTGSKDHELDPRRWKTLETHDVVIECAKISLDPTEASYEDGYSVSHQLSACFPYRSADVTTSPYVDTQNSYGGSTSTPSSSSRLMLFSPPGQLPQSLSSPSTRLLPEPLQASLWSPSAVCGMTTPPTSPGNVPADLSHPYSKAFGTTAGGKGTPSGTPATSPPPAPPCPQDDCVHGSAAQASATAPRKEERADSSRPYLHRQSNDRGLEDPPGSKGSVTLRNLPDFLGDLASEEDSIEKDKEEAAISKELSEITTAEADPVVPRGGFDSPFYRDSLSGSQRKTHSAASGTQGSSVNPEPLHSSLDKHGPDTPKQAFTPIDPPSGSADVSPAGDRDRQTSLETSILTPSPCKIPPQRGVSFGSGQLPPYDHLFEVALPKTACHFVSKKTEELLKKVKGNPEEDCVPSTSPMEVLDRLIEQGAGAHSKELSRLSLPSKSVDWTHFGGSPPSDELRTLRDQLLLLHNQLLYERFKRQQHALRNRRLLRKVIRAAALEEHNAAMKDQLKLQEKDIQMWKVSLQKEQARYSQLQEQRDTMVTQLHSQIRQLQHDREEFYNQSQELQTKLEDCRNMIAELRVELKKANNKVCHTELLLSQVSQKLSNSESVQQQMEFLNRQLLVLGEVNELYLEQLQSKHPDTTKEVEMMKTAYRKELEKNRSHLLQQNQRLDASQRRVLELESLLAKKDHLLLEQKKYLEDVKSQASGQLLAAESRYEAQRKITRVLELEILDLYGRLEKDGRLRKLEEDRAEAAEAAEERLDCCSDGCTDSLVGHNEEASGHNGETRTSRPGGTRASCGGRVTGGSSSSSSELSTPEKPPSQRFSSRWEPALGEPSSSIPTTVGSLPSSKSFLGMKARELFRNKSESQCDEDSVTMSSSSLSETLKTELGKDSGTENKTSLSLDAPHPSSPNSDNVGQLHIMDYNETHPEHS
B5: amyloid-beta A4 precursor protein-binding family A member 1 (protein, UniProt B2RUJ5 1-842)
chain: MNHLEGSAEVEVADEAPGGEVNESVEADLEHPEVVEGQQPSPSPPPPAGHEPEDHRGHPAPPPPPPPQEEEEEERGECLARSASTESGFHNHTDTAEGDVLAAARDGYEAERAQDADDESAYAVQYRPEAEEYTEQAEAEHVEAAQRRALPNHLHFHSLEHEEAMNAAYSGYVYTHRLFHRAEDEPYAEPYADYGGLQEHVYEEIGDAPELEARDGLRLYERERDEAAAYRQEALGARLHHYDERSDGESDSPEKEAEFAPYPRMDSYEQEEDIDQIVAEVKQSMSSQSLDKAAEDMPEAEQDLERAPTPGGGHPDSPGLPAPAGQQQRVVGTPGGSEVGQRYSKEKRDAISLAIKDIKEAIEEVKTRTIRSPYTPDEPKEPIWVMRQDISPTRDCDDQRPVDGDSPSPGSSSPLGAESSSIPLHPGDPTEASTNKESRKSLASFPTYVEVPGPCDPEDLIDGIIFAANYLGSTQLLSDKTPSKNVRMMQAQEAVSRIKTAQKLAKSRKKAPEGESQPMTEVDLFISTQRIKVLNADTQEPMMDHPLRTISYIADIGNIVVLMARRRMPRSNSQENVEASHPSQDGKRQYKMICHVFESEDAQLIAQSIGQAFSVAYQEFLRANGINPEDLSQKEYSDLLNTQDMYNDDLIHFSKSENCKDVFIEKQKGEILGVVIVESGWGSILPTVIIANMMHGGPAEKSGKLNIGDQIMSINGTSLVGLPLSTCQSIIKGLKNQSRVKLNIVRCPPVTTVLIRRPDLRYQLGFSVQNGIICSLMRGGIAERGGVRVGHRIIEINGQSVVATPHEKIVHILSNAVGEIHMKTMPAAMYRLLTAQEQPVYI
B6: Frrs1l (protein, UniProt B1AXV0 29-293)
chain: SPADDSAGPGGRGPRGRARGDAGADEAVPRHDSSYGTFASEFYDLRYLSEEGYPFPTAPPVDPFAKIKVEDCGRTKGCFRYGKPGCNAETCDYFLSYRMIGADVEFELSADTDGWVAVGFSSDKKMGGDDVMACVHDDNGRVRIQHFYNVGQWAKEVQRNPARDEEGVFENNRVTCRFKRPVNVPRDETIVDLHLSWYYLFAWGPAIQGAITRHDIDSPPASERVVSIYKYEDIFMPSAAYQTFSSPFCLLLIVALTFYLLMGTP

Target: SK3 calcium-activated small-conductance potassium channel (mouse (endogenous in midbrain)) (UniProt P58391)
Test: affinity purification with mass spectrometry; mouse midbrain plasma-membrane-enriched fraction solubilised in CL47a; antibody-coated magnetic beads (protein A Dynabeads for Cav1.3), 2 h at 4 °C; LC-MS/MS, iBAQ, Class A/B against 11 control IPs from knock-out mice

Row | binding | Molecule
1 | binds | SK2 channel subunit (from UniProt P58390 1-574)
2 | binds | sclerosis tuberous complex protein Tsc2 (from UniProt Q61037 1-1814)
3 | binds | α1 subunit of R-type voltage-dependent calcium channel Cav2.3 (from UniProt Q61290 1-2272)
4 | binds | B1
5 | binds | B2
6 | binds | B3
7 | binds | B4
8 | binds | B5

Target: T1, hyperpolarization-activated cyclic nucleotide-gated channel HCN2 (mouse (endogenous in midbrain))
Test: as above

Row | binding | Molecule
9 | binds | B6

No constants are given. Whether binding was seen depends on the method and setting. In cells and extracts the contact can be indirect. Here binding means that the protein was enriched with, or labelled near, the bait; the list need not be complete.
